Results are given in words; binding and its absence hold for the method and conditions named. Binding seen in cells or lysates may run through a third protein. Here binding means that the protein was enriched with, or labelled near, the bait; the list need not be complete. Tags and fused reporters may be left off the sequences shown.
Target: T1, HA-tagged ASGR1 (WT) (UniProt P07306)
T1 sequence: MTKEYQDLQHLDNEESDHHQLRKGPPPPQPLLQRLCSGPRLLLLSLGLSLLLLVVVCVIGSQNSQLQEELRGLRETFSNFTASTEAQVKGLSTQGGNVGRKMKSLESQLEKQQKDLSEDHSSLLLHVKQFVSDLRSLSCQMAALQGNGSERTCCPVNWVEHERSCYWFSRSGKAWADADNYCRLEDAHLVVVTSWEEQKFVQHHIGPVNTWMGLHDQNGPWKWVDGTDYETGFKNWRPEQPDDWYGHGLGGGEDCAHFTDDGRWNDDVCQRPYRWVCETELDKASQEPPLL
Experiment: affinity purification with mass spectrometry; IP of HA-tagged ASGR1 complexes from HepG2 cells with anti-HA magnetic beads, eluted with HA peptide, trypsin digest, LC-MS/MS; candidates further screened on UniProt for glycan features of ASGR1 ligands

B1: CREB3L1, endogenous in HepG2 cells (protein, UniProt Q96BA8 1-519)
chain: MDAVLEPFPADRLFPGSSFLDLGDLNESDFLNNAHFPEHLDHFTENMEDFSNDLFSSFFDDPVLDEKSPLLDMELDSPTPGIQAEHSYSLSGDSAPQSPLVPIKMEDTTQDAEHGAWALGHKLCSIMVKQEQSPELPVDPLAAPSAMAAAAAMATTPLLGLSPLSRLPIPHQAPGEMTQLPVIKAEPLEVNQFLKVTPEDLVQMPPTPPSSHGSDSDGSQSPRSLPPSSPVRPMARSSTAISTSPLLTAPHKLQGTSGPLLLTEEEKRTLIAEGYPIPTKLPLTKAEEKALKRVRRKIKNKISAQESRRKKKEYVECLEKKVETFTSENNELWKKVETLENANRTLLQQLQKLQTLVTNKISRPYKMAATQTGTCLMVAALCFVLVLGSLVPCLPEFSSGSQTVKEDPLAADGVYTASQMPSRSLLFYDDGAGLWEDGRSTLLPMEPPDGWEINPGGPAEQRPRDHLQHDHLDSTHETTKYLSEAWPKDGGNGTSPDFSHSKEWFHDRDLGPNTTIKLS
- binding: binds

From PMC10924105
